Measured values published in publication PMC10700342.
These are yes or no findings as the source states them, for the method shown. Binding seen in cells or lysates may run through a third protein. Some entries that bind do so weakly or less than the wild type.

By UniProt entry, the sequences of proteins in these tests, tags left out.
UniProt P62330: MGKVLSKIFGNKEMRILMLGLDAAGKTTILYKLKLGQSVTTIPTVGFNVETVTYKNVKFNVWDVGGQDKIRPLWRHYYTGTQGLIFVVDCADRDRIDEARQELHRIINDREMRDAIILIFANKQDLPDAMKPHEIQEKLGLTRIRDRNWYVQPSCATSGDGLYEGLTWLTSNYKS
UniProt Q99418: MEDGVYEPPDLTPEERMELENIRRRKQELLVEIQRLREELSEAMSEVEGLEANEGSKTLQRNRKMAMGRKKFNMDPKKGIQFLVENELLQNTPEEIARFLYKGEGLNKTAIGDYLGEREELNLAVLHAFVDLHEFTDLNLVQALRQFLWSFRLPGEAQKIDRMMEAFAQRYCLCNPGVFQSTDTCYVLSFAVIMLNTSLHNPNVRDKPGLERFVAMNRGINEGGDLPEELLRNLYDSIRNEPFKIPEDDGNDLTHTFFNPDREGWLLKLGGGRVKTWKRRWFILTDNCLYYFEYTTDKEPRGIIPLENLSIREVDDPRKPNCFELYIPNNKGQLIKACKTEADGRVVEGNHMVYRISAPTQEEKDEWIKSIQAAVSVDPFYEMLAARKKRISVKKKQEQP

Target: ARF6, endogenous in HaCaT keratinocytes (human (endogenous in HaCaT)) (UniProt P62330)
Test: co-IP; ARF6 immunoprecipitated with rabbit anti-ARF6 (D12G6) and Protein A sepharose from HaCaT lysates (1% Igepal, 150 mM NaCl, 4 °C) after 0, 30 or 60 min CAR or mCAR treatment; CYTH2 detected by western blot; non-immune rabbit IgG control

CYTH2 (Cytohesin-2, ARNO), endogenous in HaCaT keratinocytes (from UniProt Q99418 1-400)
binding: binds
